Measurements: US5438062A, “Benzo(5,6)cycloheptapyridines, compositions and methods of use” (Schering Corporation, priority 1987, dated 1995)

Tested on: PAF-induced platelet aggregation (platelet-rich plasma)
Test: PAF antagonism, in vitro platelet aggregation assay
Format: cell-based
Conditions: dose giving 50 % PAF antagonism, human PRP, PAF 1-5×10^-8 M
Description: Blood was centrifuged at 110×g for 15 min. and the supernatant PRP carefully transferred into a polypropylene tube. Platelet-poor-plasma (PPP) was prepared by centrifuging PRP at 12,000×g for 2 min. in a Beckman Microfuge B. PRP was used within 3 hours of drawing the blood.
Platelet Aggregation Assay: When an aggregating agent such as PAF is added to PRP, platelets aggregate. An aggregometer quantifies this aggregation by measuring light (infra-red) transmission through PRP and comparing to PPP. The aggregation assays were performed using a dual-channel aggregometer (Model 440, Chrono-Log Corp., Hayertown, Pa.). PRP (0.45 ml) in aggregometer curettes was continually stirred (37° C.). Solutions of test compounds or vehicle were added to the PRP, and after incubation for 2 min., 10-15 μl aliquots of PAF solution were added so as to achieve a final concentration of 1-5×10^-8 M. Incubations were continued until the increase in light transmission reached a maximum (usually about 2 min). Values for inhibition were calculated by comparing maximal aggregation obtained in the absence and the presence of the compound. For each experiment, a standard PAF antagonist, such as alprazolam, was used as a positive internal control. […] The test results are shown below in Tables Ia, Ib and Ic.

**Q.** How did the IC50 turn out when CCOC(=O)N1CCC(=C2c3ccc(Cl)cc3CCc3cccnc32)CC1 [R = OC2 H5, R^3 = Cl, R4 = H, Z = O, 8-chloro-6,11-dihydro-11-(1-ethoxycarbonyl-4-piperidylidene)-5H-benzo[5,6]cyclohepta[1,2-b]pyridine, reference compound] was run?
**A.** 175 µM
